Measured values as given in US7816374B2, “Method of treating neutrophil-related diseases with topical anesthetics” (Mayo Foundation for Medical Education and Research, priority 2000, dated 2010).

Key:
[1] = human serum; cited from earlier work
[2] = tested on: neutrophil-mediated injury; conditions: animal models; cited from earlier work
neutrophils = assay: Neutrophil extracellular superoxide production (cytochrome c reduction plate assay); assay type: cell-based, human; conditions: inferred from inability to alter PMA stimulated superoxide production
Procedure: Neutrophils were purified from heparinized venous blood of normal volunteers by sedimentation through a cushion of 1.085 gm/ml Percoll made in PIPES buffer, pH 7.4, supplemented with 50 mM NaCl, 5 mM KCl, 25 mM NaOH, and 5.4 mM glucose) and centrifuged at 2,000 rmp in a Beckman CS-6KR centrifuge for 30 minutes with no brake. Plasma, mononuclear cells, and Percoll layers were removed and the erythrocytes were lysed by osmotic shock.
The superoxide production was measured using cytochrome c reduction in a plate assay at a concentration of 50,000 neutrophils/well and was done in duplicate.
Neutrophils were isolated in a Percoll gradient to remove PBMC.
The extracellular superoxide assay (Cytochrome C method) was performed as follows: 1) The wells of a 96-well plate were blocked with 50 ul of 1% HSA for at least 2 hours at 37° C. […] The cells were resuspended in CytoC mix to 0.5×10^6 cells/mL and kept on ice until ready for use. […] 7) The 96 well plate was placed in a ThermoMax plate reader and the OD550 was read at 37° C. The plate was read at time 0 and then every 10 minutes for 1 hour, then every 30 minutes for 3 hours. 8) The concentration of superoxide released was calculated by using the following formula to calculate the nmol of Cytochrome C reduced: 19.1*[OD550(time x)−OD550(time 0)]/0.05=nmol Cytochrome C reduced per 1×10^6 cells=nmol superoxide released per 1×10^6 cells.

What does the source list for `CCN(CC)CC(=O)Nc1c(C)cccc1C` [lidocaine, (2-diethylamino)-N-(2,6-dimethylphenyl)acetamide]?
serum concentration above which lidocaine toxicity occurs [1]: 5000 to 6000 ng/mL; neutrophil tissue damage induced by hydrochloric acid, reperfusion injury and endotoxin [2]: inhibits neutrophil tissue damage; toxicity to the neutrophil (neutrophils): not toxic to the neutrophil
